# Assay results as given in patent publication US20100136580A1 (Genentech, published 2010).
# No constants are given. Whether binding was seen depends on the method and setting. For some of these results: Binding seen in cells or lysates may run through a third protein. Some entries that bind do so weakly or less than the wild type. Where a sequence is shown, tags or fusion partners need not be part of it.
# T1: GST-Dvl2PDZ fusion protein (human, UniProt O14641 248-364)
# T1 construct: range 248-364; Made with the pGEX E. coli expression system; also called GST-PDZ fusion protein; not shown: glutathione S-transferase (GST) encoded by plasmid pGEX
# T1 sequence (looked up): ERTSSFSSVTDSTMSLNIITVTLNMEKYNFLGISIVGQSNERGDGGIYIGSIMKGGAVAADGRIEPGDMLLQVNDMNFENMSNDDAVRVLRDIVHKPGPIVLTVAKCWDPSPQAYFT
# T2: endogenous Dvl1 (HEK293S cell lysate) (human) (UniProt O14640)
# T2 sequence (looked up): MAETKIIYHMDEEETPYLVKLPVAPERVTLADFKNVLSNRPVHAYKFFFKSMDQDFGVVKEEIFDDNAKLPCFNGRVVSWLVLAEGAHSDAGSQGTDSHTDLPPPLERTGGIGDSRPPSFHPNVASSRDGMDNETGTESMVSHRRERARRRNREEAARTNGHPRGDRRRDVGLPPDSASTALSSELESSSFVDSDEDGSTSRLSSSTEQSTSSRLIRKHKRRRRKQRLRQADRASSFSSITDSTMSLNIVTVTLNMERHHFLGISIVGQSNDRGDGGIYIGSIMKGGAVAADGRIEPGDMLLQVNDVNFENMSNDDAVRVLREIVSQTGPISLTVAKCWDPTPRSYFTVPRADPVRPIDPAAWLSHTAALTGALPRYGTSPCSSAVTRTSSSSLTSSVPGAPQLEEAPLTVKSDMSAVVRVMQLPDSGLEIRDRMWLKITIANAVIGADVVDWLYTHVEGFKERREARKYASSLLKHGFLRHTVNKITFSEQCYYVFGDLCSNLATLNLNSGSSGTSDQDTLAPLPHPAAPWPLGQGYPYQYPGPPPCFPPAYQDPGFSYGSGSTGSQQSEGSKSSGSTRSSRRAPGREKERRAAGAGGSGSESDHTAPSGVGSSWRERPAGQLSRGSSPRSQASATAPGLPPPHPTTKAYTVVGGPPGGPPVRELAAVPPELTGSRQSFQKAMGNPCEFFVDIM
# T3: endogenous Dvl3 (HEK293S cell lysate) (human) (UniProt Q92997)
# T3 sequence (looked up): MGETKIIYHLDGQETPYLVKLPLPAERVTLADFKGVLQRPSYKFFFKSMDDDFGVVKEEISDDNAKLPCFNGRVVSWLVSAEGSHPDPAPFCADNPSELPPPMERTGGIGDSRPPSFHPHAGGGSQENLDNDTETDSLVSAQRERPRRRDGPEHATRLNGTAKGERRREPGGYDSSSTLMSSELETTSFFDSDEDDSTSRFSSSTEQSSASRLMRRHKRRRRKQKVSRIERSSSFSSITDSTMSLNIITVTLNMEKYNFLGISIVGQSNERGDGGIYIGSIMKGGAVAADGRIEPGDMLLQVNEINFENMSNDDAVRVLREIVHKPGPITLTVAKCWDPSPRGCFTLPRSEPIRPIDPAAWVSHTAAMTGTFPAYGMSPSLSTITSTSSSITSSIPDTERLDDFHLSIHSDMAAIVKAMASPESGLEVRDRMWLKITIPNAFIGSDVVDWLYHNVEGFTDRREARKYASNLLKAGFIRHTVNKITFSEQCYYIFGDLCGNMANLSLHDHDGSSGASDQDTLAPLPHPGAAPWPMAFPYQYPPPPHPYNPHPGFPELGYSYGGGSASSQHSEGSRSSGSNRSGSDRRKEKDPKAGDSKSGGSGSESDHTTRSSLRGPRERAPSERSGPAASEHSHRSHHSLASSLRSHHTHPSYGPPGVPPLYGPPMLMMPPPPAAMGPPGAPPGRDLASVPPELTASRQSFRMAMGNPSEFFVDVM
# B1: SEQ ID NO 126 (peptide)
# peptide: VLWSDFPPR
# B2: SEQ ID NO 155 (peptide)
# peptide: ETWIDGPM
# B3: GST-DVLpep fusion protein (GST fused with peptide … at its C-terminus) (peptide, not shown: a dimerising Fc or GST)
# chain: GGGKWYGWL
# B4: SEQ ID NO 163 (peptide)
# peptide: IWVDGPLYT
# Assays:
# [1] = target: T1, GST-Dvl2PDZ fusion protein; assay: phage display selection on GST-Dvl2PDZ
# Procedure: The libraries were cycled through rounds of binding selection with a GST-Dvl2PDZ fusion protein coated on 96-well Maxisorp immunoplates as the capture target. Phage were propagated in E. coli XL1-blue with M13-KO7 helper phage and 10 μM IPTG. After four rounds of binding selection, individual phage clones were analyzed in a high-throughput phage ELISA, and positive clones were subjected to DNA sequence analysis.
# We used decapeptide libraries fused to the C-terminus or N-terminus of the phage coat protein. The library contained NNK degenerate codons that encoded all 20 natural amino acids. The possible occurrence of amber stop codons in the degenerate codon also provided for the display of shorter peptides for the C-terminal library. Each library was cycled through four rounds of binding selection with immobilized GST-Dvl2PDZ fusion protein as the capture target.
# [2] = target: T2, endogenous Dvl1 (HEK293S cell lysate) (human); assay: GST pull-down from HEK293 cell lysate, western blot
# [3] = target: T3, endogenous Dvl3 (HEK293S cell lysate) (human); assay: as above
# [4] = target: T2, endogenous Dvl1 (HEK293S cell lysate) (human); assay: GST pull-down from HEK293S cell lysate, western blot
# [5] = target: T3, endogenous Dvl3 (HEK293S cell lysate) (human); assay: as above
binder,measurement,setting,value
B1,binding,[1],binds
B2,binding,[1],binds
B3,binding,[2],binds
same,binding,[3],binds
same,binding,[4],binds
same,binding,[5],binds
B4,binding,[1],binds
